{"sequences": {"note": "By UniProt entry, the sequences of proteins in these tests, tags left out.", "UniProt Q60793": "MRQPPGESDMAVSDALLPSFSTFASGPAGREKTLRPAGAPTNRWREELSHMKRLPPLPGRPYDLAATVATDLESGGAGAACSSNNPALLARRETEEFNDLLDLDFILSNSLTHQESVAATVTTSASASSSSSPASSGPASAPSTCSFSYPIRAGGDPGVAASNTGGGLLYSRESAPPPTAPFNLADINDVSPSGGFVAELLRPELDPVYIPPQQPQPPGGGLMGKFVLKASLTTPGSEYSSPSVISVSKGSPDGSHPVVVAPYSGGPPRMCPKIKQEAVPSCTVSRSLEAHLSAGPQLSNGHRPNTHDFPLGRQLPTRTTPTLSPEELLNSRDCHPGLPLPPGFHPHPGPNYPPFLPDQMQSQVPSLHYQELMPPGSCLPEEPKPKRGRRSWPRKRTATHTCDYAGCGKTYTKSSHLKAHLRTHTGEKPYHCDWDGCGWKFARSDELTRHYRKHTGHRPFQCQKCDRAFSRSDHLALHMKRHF", "UniProt Q9CQJ4": "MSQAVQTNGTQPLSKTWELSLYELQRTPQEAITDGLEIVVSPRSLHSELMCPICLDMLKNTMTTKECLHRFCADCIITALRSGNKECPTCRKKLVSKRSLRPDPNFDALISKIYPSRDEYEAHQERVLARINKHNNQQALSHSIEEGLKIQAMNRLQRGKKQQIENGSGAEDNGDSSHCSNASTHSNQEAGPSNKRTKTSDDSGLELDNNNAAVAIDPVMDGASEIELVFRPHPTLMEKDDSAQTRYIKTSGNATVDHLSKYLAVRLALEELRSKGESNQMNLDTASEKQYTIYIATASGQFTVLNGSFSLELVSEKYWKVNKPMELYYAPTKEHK", "UniProt Q80U70": "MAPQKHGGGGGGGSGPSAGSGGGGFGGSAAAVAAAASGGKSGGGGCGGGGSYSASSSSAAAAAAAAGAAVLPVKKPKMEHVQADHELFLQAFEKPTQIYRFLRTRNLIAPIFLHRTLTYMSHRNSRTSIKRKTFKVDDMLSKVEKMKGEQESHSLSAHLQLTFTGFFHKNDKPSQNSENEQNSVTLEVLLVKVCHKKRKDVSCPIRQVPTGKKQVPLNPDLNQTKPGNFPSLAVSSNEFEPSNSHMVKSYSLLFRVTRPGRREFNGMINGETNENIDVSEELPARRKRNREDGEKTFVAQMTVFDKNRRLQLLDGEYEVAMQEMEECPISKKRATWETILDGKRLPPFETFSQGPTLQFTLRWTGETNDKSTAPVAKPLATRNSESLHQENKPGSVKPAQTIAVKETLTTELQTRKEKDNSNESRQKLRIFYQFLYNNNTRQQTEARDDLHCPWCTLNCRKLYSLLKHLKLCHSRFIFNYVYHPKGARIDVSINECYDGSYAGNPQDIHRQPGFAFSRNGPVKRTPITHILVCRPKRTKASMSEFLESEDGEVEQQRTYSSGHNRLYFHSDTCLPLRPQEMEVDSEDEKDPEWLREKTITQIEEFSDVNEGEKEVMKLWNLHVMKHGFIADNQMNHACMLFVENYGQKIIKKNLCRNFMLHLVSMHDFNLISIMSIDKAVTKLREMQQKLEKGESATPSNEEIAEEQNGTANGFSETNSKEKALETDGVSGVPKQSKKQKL"}, "source": "paper doi:10.1101/382473", "molecules": {"B1": {"name": "SMC1a (protein, UniProt Q9CU62 1-1233)", "chain": "MGFLKLIEIENFKSYKGRQIIGPFQRFTAIIGPNGSGKSNLMDAISFVLGEKTSNLRVKTLRDLIHGAPVGKPAANRAFVSMVYSEEGAEDRTFARVIVGGSSEYKINNKVVQLHEYSEELEKLGILIKARNFLVFQGAVESIAMKNPKERTALFEEISRSGELAQEYDKRKKEMVKAEEDTQFNYHRKKNIAAERKEAKQEKEEADRYQRLKDEVVRAQVQLQLFKLYHNEVEIEKLNKELASKNKEIEKDKKRMDKVEDELKEKKKELGKMMREQQQIEKEIKEKDSELNQKRPQYIKAKENTSHKIKKLEAAKKSLQNAQKHYKKRKGDMDELEKEMLSVEKARQEFEERMEEESQSQGRDLTLEENQVKKYHRLKEEASKRAATLAQELEKFNRDQKADQDRLDLEERKKVETEAKIKQKLREIEENQKRIEKLEEYITTSKQSLEEQKKLEGELTEEVEMAKRRIDEINKELNQVMEQLGDARIDRQESSRQQRKAEIMESIKRLYPGSVYGRLIDLCQPTQKKYQIAVTKVLGKNMDAIIVDSEKTGRDCIQYIKEQRGEPETFLPLDYLEVKPTDEKLRELKGAKLVIDVIRYEPPHIKKALQYACGNALVCDNVEDARRIAFGGHQRHKTVALDGTLFQKSGVISGGASDLKAKARRWDEKAVDKLKEKKERLTEELKEQMKAKRKEAELRQVQSQAHGLQMRLKYSQSDLEQTKTRHLALNLQEKSKLESELANFGPRINDIKRIIQSREREMKDLKEKMNQVEDEVFEEFCREIGVRNIREFEEEKVKRQNEIAKKRLEFENQKTRLGIQLDFEKNQLKEDQDKVHMWEQTVKKDENEIEKLKKEEQRHMKIIDETMAQLQDLKNQHLAKKSEVNDKNHEMEEIRKKLGGANKEMTHLQKEVTAIETKLEQKRSDRHNLLQACKMQDIKLPLSKGTMDDISQEEGSSQGEESVSGSQRTSSIYAREALIEIDYGDLCEDLKDAQAEEEIKQEMNTLQQKLNEQQSVLQRIAAPNMKAMEKLESVRDKFQETSDEFEAARKRAKKAKQAFEQIKKERFDRFNACFESVATNIDEIYKALSRNSSAQAFLGPENPEEPYLDGINYNCVAPGKRFRPMDNLSGGEKTVAALALLFAIHSYKPAPFFVLDEIDAALDNTNIGKVANYIKEQSTCNFQAIVISLKEEFYTKAESLIGVYPEQGDCVISKVLTFDLTKYPDANPNPNEQ"}}, "note": "No constants are given. Whether binding was seen depends on the method and setting. In cells and extracts the contact can be indirect. Some entries that bind do so weakly or less than the wild type."}
{"target": "KLF4 (mouse (endogenous in V6.5 ES cells)) (UniProt Q60793)", "experiment": "co-IP"}
{"molecule": "RING1b (from UniProt Q9CQJ4 1-336)", "binding": "binds"}
{"molecule": "SUZ12 (from UniProt Q80U70 1-741)", "binding": "binds"}
{"molecule": "B1", "binding": "binds"}
